Drawing on paper PMC10965980, this text covers binding for four molecules.

Test [1] has as its target T1, Homer1 (mouse (endogenous in cultured cortical neurons and cortex)), Q9Z2Y3.
T1 chain: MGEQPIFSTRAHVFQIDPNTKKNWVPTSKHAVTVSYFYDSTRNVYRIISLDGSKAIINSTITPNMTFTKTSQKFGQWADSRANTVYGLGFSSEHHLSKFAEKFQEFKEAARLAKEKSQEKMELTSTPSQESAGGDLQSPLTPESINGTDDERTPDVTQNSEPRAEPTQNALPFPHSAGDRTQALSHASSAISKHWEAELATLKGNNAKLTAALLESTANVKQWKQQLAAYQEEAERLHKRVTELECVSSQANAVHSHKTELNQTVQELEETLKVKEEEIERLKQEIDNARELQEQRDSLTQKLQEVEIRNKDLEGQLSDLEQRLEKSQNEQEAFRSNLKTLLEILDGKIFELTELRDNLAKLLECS
As to the kind of experiment: co-IP; cultured mouse cortical neurons transfected for 72 h with lentiviruses for wild-type or mutant mGluR1 or Homer1, 24 h after TNI; anti-Homer1 precipitation (stated for the Homer1 vectors), western blot for mGluR1 and Homer1. The following applies: remark: other sources report otherwise. For orientation: A western blot detects proteins with antibodies after separation by electrophoresis.

Test [2] concerns the target T1, Homer1 (mouse (endogenous in cultured …)). The test can be described thus: co-IP; endogenous proteins in lysate of cultured mouse cortical neurons; anti-Homer1 on magnetic beads (Pierce Crosslink Magnetic IP/Co-IP Kit), overnight at 4 °C, western blot; cells with or without TNI, LV-shPreso, LV-Preso, purvalanol B (50 μM), KN93 (10 μM). The following applies: remark: other sources report otherwise.

The target in test [3] is T2, Homer1 expressed from lentivirus (LV-Homer1), Q9Z2Y3.
T2 chain: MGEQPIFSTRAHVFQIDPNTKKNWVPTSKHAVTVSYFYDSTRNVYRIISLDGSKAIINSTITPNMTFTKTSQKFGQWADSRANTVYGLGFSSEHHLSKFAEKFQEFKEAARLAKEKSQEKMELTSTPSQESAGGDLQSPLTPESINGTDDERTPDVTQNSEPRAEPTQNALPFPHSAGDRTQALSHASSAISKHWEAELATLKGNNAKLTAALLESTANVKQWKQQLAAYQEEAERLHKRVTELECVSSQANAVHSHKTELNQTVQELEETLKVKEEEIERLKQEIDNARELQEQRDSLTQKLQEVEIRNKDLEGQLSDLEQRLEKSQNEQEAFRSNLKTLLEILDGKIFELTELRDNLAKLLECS
As to the kind of experiment: co-IP; cultured mouse cortical neurons transfected for 72 h with lentiviruses for wild-type or mutant mGluR1 or Homer1, 24 h after TNI; anti-Homer1 precipitation (stated for the Homer1 vectors), western blot for mGluR1 and Homer1. The following applies: remark: other sources report otherwise.

In test [4] the target is T1, Homer1 (mouse (endogenous in cultured …)). As to the kind of experiment: co-IP; lysate of cortex of wild-type and Preso-/- mice, sham or after TBI (CCI); anti-Homer1 precipitation, western blot. Conditions: remark: other sources report otherwise.
The target in test [5] is cyclin-dependent kinase 5 (CDK5) (mouse (endogenous in cultured cortical neurons)) (UniProt P49615). As to the kind of experiment: co-IP; competition: synthetic TAT-fused peptide (5 μM) given to living cultured mouse cortical neurons before TNI; loss of the co-precipitate with anti-Preso or anti-Homer1 against the control peptide; only the binder purified.
For test [6], the target named is T3, Homer1 (mouse (endogenous in cultured cortical neurons and cortex)) (UniProt Q9Z2Y3).
T3 sequence: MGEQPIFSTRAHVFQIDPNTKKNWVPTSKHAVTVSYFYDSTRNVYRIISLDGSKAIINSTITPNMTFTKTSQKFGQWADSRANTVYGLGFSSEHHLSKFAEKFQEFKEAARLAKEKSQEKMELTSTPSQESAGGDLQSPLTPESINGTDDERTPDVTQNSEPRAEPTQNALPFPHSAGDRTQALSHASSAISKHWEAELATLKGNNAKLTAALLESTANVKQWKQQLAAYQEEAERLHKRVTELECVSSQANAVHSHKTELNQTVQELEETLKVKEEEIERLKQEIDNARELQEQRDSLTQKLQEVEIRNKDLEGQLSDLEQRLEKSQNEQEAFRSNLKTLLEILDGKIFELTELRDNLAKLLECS
The description is as above.

Results are given in words; binding and its absence hold for the method and conditions named. In cells and extracts the contact can be indirect. Some binding calls cover weakened binding; strength is not graded here.

B1: mGluR1 expressed from lentivirus (LV-mGluR1), P97772 21-1199 (receptor)
chain: RMPDRKVLLAGASSQRSVARMDGDVIIGALFSVHHQPPAEKVPERKCGEIREQYGIQRVEAMFHTLDKINADPVLLPNITLGSEIRDSCWHSSVALEQSIEFIRDSLISIRDEKDGLNRCLPDGQTLPPGRTKKPIAGVIGPGSSSVAIQVQNLLQLFDIPQIAYSATSIDLSDKTLYKYFLRVVPSDTLQARAMLDIVKRYNWTYVSAVHTEGNYGESGMDAFKELAAQEGLCIAHSDKIYSNAGEKSFDRLLRKLRERLPKARVVVCFCEGMTVRGLLSAMRRLGVVGEFSLIGSDGWADRDEVIEGYEVEANGGITIKLQSPEVRSFDDYFLKLRLDTNTRNPWFPEFWQHRFQCRLPGHLLENPNFKKVCTGNESLEENYVQDSKMGFVINAIYAMAHGLQNMHHALCPGYVGLCDAMKPIDGRKLLDFLIKSSFVGVSGEEVWFDEKGDAPGRYDIMNLQYTEANRYDYVHVGTWHEGVLNIDDYKIQMNKSGMVRSVCSEPCLKGQIKVIRKGEVSCCWICTACKENEFVQDEFTCRACDLGWWPNAELTGCEPITIRYLEWSDIESIIAIAFSCLGILVTLFVTLIFVLYRDTPVVKSSSRELCYIILAGIFLGYVCPFTLIAKPTTTSCYLQRLLVGLSSAMCYSALVTKTNRIARILAGSKKKICTRKPRFMSAWAQVIIASILISVQLTLVVTLIIMEPPMPILSYPSIKEVYLICNTSNLGVVAPVGYNGLLIMSCTYYAFKTRNVPANFNEAKYIAFTMYTTCIIWLAFVPIYFGSNYKIITTCFAVSLSVTVALGCMFTPKMYIIIAKPERNVRSAFTTSDVVRMHVGDGKLPCRSNTFLNIFRRKKPGAGNANSNGKSVSWSEPGGRQAPKGQHVWQRLSVHVKTNETACNQTAVIKPLTKSYQGSGKSLTFSDASTKTLYNVEEEDNTPSTHFSPPSSPSMVVHRRGPPVATTPPLPPHLSAEETPLFLADSVIPKGLPPPLPQQQQQPPPQPPPQQPKSLMDQLQGVVTNFGSGIPDFHAVLAGPGTPGNGLRSLYPPPPPPQHLQMLPLQLSTFREEPISPPGEDDDDDSSERFKLLQEFVYEREGNTEEDDLEEEEDLPAASKLTPEDSPALTPPSPFRDSVASGSSVPSSPVSESVLCTPPNVTYASVILRDYKQSSSTL
Consider B1, for which the binding entry in test [1] is reported as “binds”.

B2: metabotropic glutamate receptor 1 (mGluR1), P97772 21-1199 (receptor)
chain: RMPDRKVLLAGASSQRSVARMDGDVIIGALFSVHHQPPAEKVPERKCGEIREQYGIQRVEAMFHTLDKINADPVLLPNITLGSEIRDSCWHSSVALEQSIEFIRDSLISIRDEKDGLNRCLPDGQTLPPGRTKKPIAGVIGPGSSSVAIQVQNLLQLFDIPQIAYSATSIDLSDKTLYKYFLRVVPSDTLQARAMLDIVKRYNWTYVSAVHTEGNYGESGMDAFKELAAQEGLCIAHSDKIYSNAGEKSFDRLLRKLRERLPKARVVVCFCEGMTVRGLLSAMRRLGVVGEFSLIGSDGWADRDEVIEGYEVEANGGITIKLQSPEVRSFDDYFLKLRLDTNTRNPWFPEFWQHRFQCRLPGHLLENPNFKKVCTGNESLEENYVQDSKMGFVINAIYAMAHGLQNMHHALCPGYVGLCDAMKPIDGRKLLDFLIKSSFVGVSGEEVWFDEKGDAPGRYDIMNLQYTEANRYDYVHVGTWHEGVLNIDDYKIQMNKSGMVRSVCSEPCLKGQIKVIRKGEVSCCWICTACKENEFVQDEFTCRACDLGWWPNAELTGCEPITIRYLEWSDIESIIAIAFSCLGILVTLFVTLIFVLYRDTPVVKSSSRELCYIILAGIFLGYVCPFTLIAKPTTTSCYLQRLLVGLSSAMCYSALVTKTNRIARILAGSKKKICTRKPRFMSAWAQVIIASILISVQLTLVVTLIIMEPPMPILSYPSIKEVYLICNTSNLGVVAPVGYNGLLIMSCTYYAFKTRNVPANFNEAKYIAFTMYTTCIIWLAFVPIYFGSNYKIITTCFAVSLSVTVALGCMFTPKMYIIIAKPERNVRSAFTTSDVVRMHVGDGKLPCRSNTFLNIFRRKKPGAGNANSNGKSVSWSEPGGRQAPKGQHVWQRLSVHVKTNETACNQTAVIKPLTKSYQGSGKSLTFSDASTKTLYNVEEEDNTPSTHFSPPSSPSMVVHRRGPPVATTPPLPPHLSAEETPLFLADSVIPKGLPPPLPQQQQQPPPQPPPQQPKSLMDQLQGVVTNFGSGIPDFHAVLAGPGTPGNGLRSLYPPPPPPQHLQMLPLQLSTFREEPISPPGEDDDDDSSERFKLLQEFVYEREGNTEEDDLEEEEDLPAASKLTPEDSPALTPPSPFRDSVASGSSVPSSPVSESVLCTPPNVTYASVILRDYKQSSSTL
Consider B2, for which the binding result in test [2], in test [3] and in test [4] was “binds” throughout.
GRKKRRQRRRPQEKRSEVTLLVGPRYG [TAT-Preso-D]: the binding entry in test [5] is reported as “binds”.
GRKKRRQRRRPQDSPALTPPSPFRDSVA [TAT-mGluR1-H1]: in test [6], the binding entry is given as “binds”.
